Experimental data reported in PubChem BioAssay AID720711 (National Center for Advancing Translational Sciences (NCATS), 2013).
About 290 (0.081%) of roughly 360,000 compounds were called active. Inconclusive means that the source gave no clear call. Such entries were picked first, then a sample of the others. Calls follow the shape of the dose curve; as a rule, active = well fitted activation curve with a large enough effect; inconclusive = small, poorly fitted or top-dose-only effect; inactive = no such curve, though single readings can be large or run the other way. A potency beside an inconclusive call is a rough fit, not a confirmed value.

Sequences of proteins named here, by UniProt entry; tags and fusion partners are left off. A change or cut given only in a name is not applied to a line headed by its entry.
UniProt Q8WZA2: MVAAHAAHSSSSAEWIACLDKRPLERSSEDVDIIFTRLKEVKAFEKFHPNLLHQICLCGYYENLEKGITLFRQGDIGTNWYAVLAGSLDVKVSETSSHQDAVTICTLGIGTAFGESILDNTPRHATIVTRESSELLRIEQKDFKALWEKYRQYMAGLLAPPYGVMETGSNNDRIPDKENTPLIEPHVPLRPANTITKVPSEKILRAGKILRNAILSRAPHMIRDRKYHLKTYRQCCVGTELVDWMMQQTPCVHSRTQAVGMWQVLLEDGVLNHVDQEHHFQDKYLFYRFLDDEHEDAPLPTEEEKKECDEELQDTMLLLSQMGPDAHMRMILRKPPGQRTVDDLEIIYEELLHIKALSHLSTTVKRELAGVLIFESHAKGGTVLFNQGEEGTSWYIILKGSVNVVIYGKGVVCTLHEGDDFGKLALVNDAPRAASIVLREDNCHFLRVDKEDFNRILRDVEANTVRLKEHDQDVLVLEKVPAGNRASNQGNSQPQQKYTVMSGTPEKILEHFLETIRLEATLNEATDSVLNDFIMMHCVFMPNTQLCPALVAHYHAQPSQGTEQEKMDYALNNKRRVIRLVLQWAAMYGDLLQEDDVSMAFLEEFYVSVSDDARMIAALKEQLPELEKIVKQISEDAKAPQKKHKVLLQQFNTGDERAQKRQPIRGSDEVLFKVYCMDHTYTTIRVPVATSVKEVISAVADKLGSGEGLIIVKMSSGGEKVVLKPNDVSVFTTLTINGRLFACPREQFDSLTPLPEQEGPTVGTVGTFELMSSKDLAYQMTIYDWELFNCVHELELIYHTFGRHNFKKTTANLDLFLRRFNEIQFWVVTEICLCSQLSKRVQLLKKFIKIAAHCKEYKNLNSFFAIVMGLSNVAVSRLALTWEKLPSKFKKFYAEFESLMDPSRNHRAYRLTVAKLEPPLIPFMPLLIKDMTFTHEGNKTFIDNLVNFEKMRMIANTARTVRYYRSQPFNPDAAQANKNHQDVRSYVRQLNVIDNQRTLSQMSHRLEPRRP

target: Rap guanine nucleotide exchange factor 4 (Homo sapiens) (UniProt Q8WZA2); test: qHTS for Agonist of cAMP-regulated guanine nucleotide exchange factor 4 (EPAC2): primary screen; settings: biochemical qHTS; Potency: EPAC2 activation unless noted; activation: at 154 µM (top of the series), 100% = 6.5 mM cAMP response unless noted; also: nearly all actives have a fitted effect of over 50% in size
In short: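 Readout is BODIPY fluorescence (480 nm excitation, 540 nm emission), which falls as labeled GDP is exchanged off Rap1B. EPAC2 at 100 nM acted on 250 nM RAP1B-BODIPY-GDP with 50 uM GDP present.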
Potency is read from the fitted curve at half-maximal effect.

| Compound | Potency | activation |
| --- | --- | --- |
| O=C(Nc1cccc2cccnc12)c1cccc(Cl)c1 | inconclusive: 89.1 µM [activator, partial curve] |  |
| CC(C)N1C(=S)SC(C)(C)C1n1oc(=O)n(-c2ccc(Cl)c(Cl)c2)c1=O (stereo not given) |  | inactive: 16.2% |
| COc1ccc([C@@H]2[C@H]3CN(C(C)=O)CC=C3C(C#N)=C(N)C2(C#N)C#N)c2ccccc12 | inconclusive: 112 µM [activator, single point] |  |
| Cc1ccc(N2C(=O)c3cccc4c(N)ccc(c34)C2=O)c2cccnc12 | active: 100 µM |  |
| O=C(CCC(=O)Nc1ccccc1Cl)NNC(=S)Nc1ccccc1C(F)(F)F |  | inconclusive: 30.1% [activator] |
| COC(=O)C1=CN(Cc2ccc(OC)c(OC)c2)C=C(C(=O)OC)C1c1cccc(O)c1 | inconclusive: 50.1 µM [activator, single point] |  |
| Cc1ccc(NC(=O)Nc2cccc(F)c2)nc1 |  | inactive: -0.387% |
| O=C1CC(c2ccco2)CC2=C1C=Nc1ccccc1N2 (stereo not given) |  | inactive: 6.91% |
| CC1(C(=O)NCc2ccccc2)CSCC(=O)N1CCOc1ccccc1 (stereo not given) |  | inactive: -1.03% |
| COn1c2c(c3c4nonc4ccc31)CCCC2 | inconclusive: 112 µM [activator, single point] |  |
| O=C(NCc1cccnc1)Nc1ccccc1 |  | inconclusive: 4.55% [activator] |
| CC1CCC(C(C)C)C(OC(=O)CSc2nccc(=O)[nH]2)C1 (stereo not given) | inconclusive: 112 µM [activator, single point] |  |
| COc1ccccc1-c1ccc(Nc2cccc(C(F)(F)F)c2)nn1 |  | inconclusive: 43.8% [activator] [at 15.6 µM, 100% = 6.5 mM cAMP response] |
| CN1/C(=C/C=C(C#N)C#N)C(C)(C)c2ccccc21 | active: 112 µM |  |
| Cc1oc(-c2cccs2)nc1CNC[C@H]1O[C@@H](n2cnc(C(N)=O)n2)[C@H](O)[C@@H]1O | inconclusive: 126 µM [activator, single point] |  |
| COc1ccc(CNC(=O)c2[nH]c(C(F)(F)F)nc2-c2ccccc2)cc1 | inconclusive: 126 µM [activator, single point] |  |
| COC(=O)c1c(C)cc(O)cc1O |  | inactive: 4.25% |
| Cc1nn(-c2ccccn2)c2c1-c1nc(N)ncc1CC2 |  | inactive: -5.57% |
| CCN(CC)C1=CC2=CC(=C(C#N)C#N)CCC2CC1 (stereo not given) | active: 100 µM |  |
| C#CCOCCOCCOCCNc1nc(N2CCN(C(=O)CCCCCCCCCCNC(=O)Cn3cc(CCCCCN)nn3)CC2)nc(N2CCN(C(=O)CCCCCCCCCCNC(=O)[C@@H](CCSC)n3cc(CCO)nn3)CC2)n1 | inconclusive: 112 µM [activator, single point] |  |

Complete entries from above:
CC1(C(=O)NCc2ccccc2)CSCC(=O)N1CCOc1ccccc1 (stereo not given) in the list: activation: inactive: -1.03%
CC(C)N1C(=S)SC(C)(C)C1n1oc(=O)n(-c2ccc(Cl)c(Cl)c2)c1=O (stereo not given) in the list: activation: inactive: 16.2%
